# Literature values as cited in patent US9771331B2, “Methods of identifying neuroprotective compounds for retinal ganglion cells” (THE JOHNS HOPKINS UNIVERSITY, priority 2005, dated 2017).
# For at least one compound, name, drawing or mass did not settle the structure.
# System: RGCs
# Conditions: cited from earlier work
SMILES,effective concentration (Huang et al. 2003),concentration of maximal effect on RGCs (Shen et al. 1999)
"[Li] [Lithium, reference compound]",1 mM,–
"C=C[C@@]1(C)CC(=O)[C@]2(O)[C@@]3(C)[C@@H](O)CCC(C)(C)[C@@H]3[C@H](O)[C@H](OC(C)=O)[C@@]2(C)O1 [forskolin, reference compound]",–,3 µM
